## Library screen at single concentrations

The values are deposited in ChEMBL (CHEMBL3988442, “University of Dundee, Small-Polar-MMV Screening Library” (2021)).

Values are the deposited “Percent Effect”, in %.
The record does not define 0% and 100%; most values in the screen are far below 50% and negative numbers occur (in some assays of this library far below -100).
This is an unselected part of the compounds tested.
Two or more numbers in one place are separate tests of the same structure; such repeats can differ widely.

Mtb cholesterol medium: 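Phenotypic screen: M. tuberculosis growth, cholesterol and DPPC medium, 4 days; the read-out is not stated. Compounds at 50 µM. Direction is inferred from retests: higher values go with more growth inhibition. Of about 69,000 compounds tested this way, about 370 (0.54%) reached 50% or more in at least one test.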
Mtb glucose medium: 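Phenotypic screen: M. tuberculosis growth, glucose 7H9 medium, 3 days; the read-out is not stated. Concentration: 50 µM. Direction is inferred from retests: higher values go with more growth inhibition. Size under these conditions: about 69,000 compounds, about 760 of them at 50% or above in at least one test.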

Compound: c1cc(-c2nnn3c2COC(CNCC2CCOCC2)C3)ccn1 (stereo not drawn)
Mtb cholesterol medium: -18.69%
Mtb glucose medium: -18.64% & -66.84%

Compound: O=C(c1cncc(Br)c1)N1CCCc2c(F)cc(F)cc21
Mtb cholesterol medium: -5.871%
Mtb glucose medium: 6.054%

Compound: [H][C@]12CC=C(CN3CCCn4nc(CCC(=O)O)cc4C3)[C@]([H])(C1)C2(C)C
Mtb cholesterol medium: 17.2%
Mtb glucose medium: 17.34%

Compound: CC(C)c1nn(C)c(N(C)C)c1CNC1CCOc2c(F)cccc21.Cl (stereo not drawn)
Mtb cholesterol medium: 8.015%
Mtb glucose medium: 14.9%

Compound: O=C(O)C(F)(F)F.[H][C@]12CCC[C@@H](CN(C)C3CC3)[C@@]1([H])CN(c1ncccn1)C2
Mtb cholesterol medium: 7.259%
Mtb glucose medium: 12.39%

Compound: Cc1cc(C)n(CCC(=O)N2CCC(Nc3cccnn3)CC2)n1
Mtb cholesterol medium: -3.32%
Mtb glucose medium: 3.836%

Compound: Cc1cc(C(=O)N[C@@H]2CCNC[C@H]2O)ccc1Cl
Mtb cholesterol medium: 21.13%
Mtb glucose medium: 31.08%

Compound: NC(=O)N1CCCN(CCc2nc(-c3cccc(Cl)c3)no2)CC1
Mtb cholesterol medium: 9.664%
Mtb glucose medium: 20.64% & 12.36%

Compound: Cc1ncc(CN2CCC3(CC2)CC(=O)N(C)C3)cn1
Mtb cholesterol medium: -21.23%
Mtb glucose medium: -0.4774%

Compound: c1ccc2c(c1)OCCC2NCc1ccc(N2CCOCC2)cc1 (stereo not drawn)
Mtb cholesterol medium: -14.03%
Mtb glucose medium: -0.7525%

Compound: O=c1[nH]c(NCCO)nc2c1C1(CCCC1)Cc1ccccc1-2
Mtb cholesterol medium: -19.6%
Mtb glucose medium: -7.708%

Compound: Cc1cc(N2CCCN(CCc3ccccc3)CC2)ccn1
Mtb cholesterol medium: -19.21%
Mtb glucose medium: -8.401%

Compound: CN1CCC(N(CCc2ccccc2)C(=O)COCC2CCCO2)CC1 (stereo not drawn)
Mtb cholesterol medium: -5.712%
Mtb glucose medium: 10.21%

Compound: O=C(O)C(F)(F)F.[H][C@@]12CCN(CC3CC3)C[C@@]1([H])O[C@@H](c1nc(C)no1)C2
Mtb cholesterol medium: 21.22%
Mtb glucose medium: 29.77%

Compound: Cc1cccc(CN2CC3(CCN(Cc4ccoc4)CC3)OCC2=O)n1.O=C(O)C(F)(F)F.O=C(O)C(F)(F)F
Mtb cholesterol medium: -14.29%
Mtb glucose medium: -16.11%

Compound: NC1(C(=O)N2CCC(c3cc(-c4ccccc4Cl)n[nH]3)CC2)CCC1
Mtb cholesterol medium: -54.93%
Mtb glucose medium: -27.88%

Compound: COC(=O)C(C)(C)NC(=O)c1cnc(C(C)(C)C)s1
Mtb cholesterol medium: -7.74% & 5.289%
Mtb glucose medium: 17.6%

Compound: COCCN(C(=O)c1ccn(-c2ccc(OC)cc2)n1)C(C)C(N)=O (stereo not drawn)
Mtb cholesterol medium: -3.502%
Mtb glucose medium: 0.007771%

Compound: CC(CN(C)Cc1cccc(-n2cccn2)c1)C(F)(F)F (stereo not drawn)
Mtb cholesterol medium: -4.471%
Mtb glucose medium: -0.201%

Compound: Cc1c(Cl)c(CN2CCCC2Cn2cncn2)nc2ccccc12 (stereo not drawn)
Mtb cholesterol medium: 19.75%
Mtb glucose medium: 32.76%

Compound: O=C(O)c1cccnc1CN(Cc1ccsc1)C1CC1
Mtb cholesterol medium: -25.68%
Mtb glucose medium: 4.198%

Compound: [H][C@@]12CCN(CCOCc3ccccc3)[C@]1([H])CC[C@@H](C(=O)NCC1CC1)O2
Mtb cholesterol medium: -12.79%
Mtb glucose medium: 7.037%

Compound: O=C(NCCc1ccccn1)NC1CCN(c2ncccn2)CC1
Mtb cholesterol medium: -5.069%
Mtb glucose medium: 22.48%

Compound: Cc1nc(C)c(CNCc2nnc3n2CCCC3C(F)(F)F)s1 (stereo not drawn)
Mtb cholesterol medium: 0.9209%
Mtb glucose medium: -7.162%

Compound: CC(NC(=O)NCCCn1cncn1)c1ccccc1F (stereo not drawn)
Mtb cholesterol medium: -10.78%
Mtb glucose medium: -13.38%

Compound: Cc1nc(C)n(CCNC(=O)C2(C)CC(c3ccccc3)=NO2)n1 (stereo not drawn)
Mtb cholesterol medium: 19.43%
Mtb glucose medium: 17.61%

Compound: Cn1cnc2c1C(C(=O)N1CCCC1)N(S(C)(=O)=O)CC2 (stereo not drawn)
Mtb cholesterol medium: -8.682%
Mtb glucose medium: -7.94% & -9.524%

Compound: CCn1cc(CNCCNc2ncc(Cl)cc2Cl)cn1
Mtb cholesterol medium: -27.78%
Mtb glucose medium: -40.14%

Compound: O=C(CN1CCC(Nc2ncccn2)CC1)Nc1ccccc1
Mtb cholesterol medium: -3.839% & -8.324%
Mtb glucose medium: 2.805%

Compound: CC(C)N1CCCCC1c1cncc(Cl)n1 (stereo not drawn)
Mtb cholesterol medium: 3.294% & 7.478%
Mtb glucose medium: -0.6645%

Compound: CC(C)(C)c1ncc2c(n1)CN(C(=O)c1ccc(-n3cnnn3)cc1)C2
Mtb cholesterol medium: -0.03133% & -6.252%
Mtb glucose medium: -1.922%

Compound: Cc1cccc(-c2noc(CN3CCC(c4ccn[nH]4)CC3)n2)c1
Mtb cholesterol medium: -11.76% & 6.055%
Mtb glucose medium: 19.1%

Compound: COc1cccc(-c2csc(Cn3ccc(=O)[nH]c3=O)n2)c1
Mtb cholesterol medium: -6.713%
Mtb glucose medium: -24.1% & -9.609%

Compound: N#Cc1cccc(N2CCC(CO)(CCOc3ccccc3)CC2)n1
Mtb cholesterol medium: -10.5%
Mtb glucose medium: -6.362% & -1.838%

Compound: CC(C)C(NC(=O)Cc1ccccc1)C(=O)NCc1ccc(O)nc1 (stereo not drawn)
Mtb cholesterol medium: -8.187%
Mtb glucose medium: -11.57%

Compound: COCCN(C)[C@@H]1c2ccccc2C2(CCNCC2)[C@H]1O
Mtb cholesterol medium: -5.332%
Mtb glucose medium: 43.51%

Compound: CC(=O)N(C)c1nc(Cn2nnnc2C(C)(C)C)cs1
Mtb cholesterol medium: -12.23%
Mtb glucose medium: 16.76%

Compound: O=C(O)C(F)(F)F.[H][C@]12CC[C@@]3(N=C(CC)NC3=O)[C@@]1([H])CN(Cc1ccccc1F)C2
Mtb cholesterol medium: 11.73%
Mtb glucose medium: -9.704% & 12.59%

Compound: CC(C)NC(=O)NC(C)c1nc(-c2ccccc2)cs1 (stereo not drawn)
Mtb cholesterol medium: -4.727%
Mtb glucose medium: -5.177%

Compound: Cc1ccc(NC(C)(C)c2nnnn2-c2ccc(Cl)cc2)c(C)c1
Mtb cholesterol medium: 3.921%
Mtb glucose medium: 6.634%